PubChem BioAssay AID602196 | INSERM, 2012
Shown is a random part of about 23,000 reagents tested. 455 of them (2%) count as active. 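Active includes both protection and sensitisation; some change values fall well beyond the stated -50 to +50 range.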 Entries without a mark were called inactive. Not given: the amount of reagent.

- Purpose: 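Modifiers of cisplatin sensitivity in A549 cells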
- System: human A549 lung cancer cells
- Knock-down reagent: siRNA pair against human genes
- Timing: 48 h transfection before cisplatin; time from cisplatin to read-out not stated
- Conditions: cisplatin at a dose killing half of control-siRNA cells; exact dose and duration not given
- Measurement: 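Cisplatin cell death as a shift from the 50% death seen with control siRNA; siRNAs toxic or growth-blocking alone scored 0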
- Reading the numbers: two-siRNA summed score (-2 to +2): higher = both siRNAs protect from cisplatin killing; -2 means both sensitise; mean protection from cisplatin (shift in death) and protection from cisplatin (shift in death), siRNA C and protection from cisplatin (shift in death), siRNA D: higher = protection from cisplatin killing
- Active means: 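siRNAs harmful alone (LDH or WST-1) get 0; others get +1 for less and -1 for more cisplatin killing; genes are active when the two siRNAs give the same sign, summing to ±2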
- Meaning of the calls: active = both siRNAs shift cisplatin killing the same way; inactive = no consistent shift, or siRNA harmful alone

| gene | two-siRNA summed score (-2 to +2) | mean protection from cisplatin (shift in death) (%) | protection from cisplatin (shift in death), siRNA C (%) | protection from cisplatin (shift in death), siRNA D (%) |
| --- | --- | --- | --- | --- |
| CNST | -1 | -9 | -20.9 | 2.9 |
| LOC388713 | 1 | 6.9 | -9.3 | 23.1 |
| LOC389077 | 0 | 11.5 | 16 | 7 |
| SNAPC2 | 0 | 0.3 | -4.9 | 5.4 |
| MAGOH | -1 | -14.3 | -11.4 | -17.1 |
| DZIP3 | 0 | -2.2 | 0.7 | -5 |
| CEP135 | 1 | 28.8 | 15.2 | 42.3 |
| CLPS | 0 | 4 | 11.8 | -3.9 |
| NAA30 | 0 | 8.3 | 9.2 | 7.5 |
| RAD54L | 1 | 4.5 | -9.8 | 18.7 |
| TMA16 | 0 | -2.9 | -5.8 | 0.1 |
| SLC24A5 | 0 | 15.6 | 16.2 | 15 |
| BRDT | 0 | 1.8 | -0.5 | 4.1 |
| RNF41 | 0 | 13.2 | 10.6 | 15.9 |
| LOC440116 | 1 | 21.3 | 14.6 | 27.9 |
| OR10V1 | 0 | 4.6 | -3.7 | 12.9 |
| LINC00343 | 0 | 1.9 | -2.4 | 6.3 |
| GTSF1 | 0 | 6.7 | 3.2 | 10.2 |
| AOC1 | 0 | 0 | 15.7 | -15.7 |
| CFAP70 | 0 | -0.7 | -12 | 10.7 |
| KTI12 | -1 | 0.1 | 14.4 | -14.2 |
| FLJ44037 | 0 | 10.6 | 29 | -7.8 |
| SYT16 | 0 | 12.3 | 12.4 | 12.2 |
| CD151 | -1 | -28.9 | -33 | -24.8 |
| CAPRIN2 | 0 | 9.8 | 10.8 | 8.8 |
| LRRC4 | 0 | 17.3 | 4.8 | 29.9 |
| LOC133790 | 1 | 27.9 | 24.7 | 31.1 |
| NCAM2 | 0 | 8.2 | -1.8 | 18.1 |
| OR6C65 | 0 | 11.3 | 10.4 | 12.2 |
| HPN | -1 | -10.1 | -1.9 | -18.2 |
| FBH1 | 0 | 23.8 | 32.7 | 14.8 |
| ZNF831 | 0 | 2.3 | 3.5 | 1.1 |
| FBXO40 | -1 | -38.9 | -51.5 | -26.3 |
| COMMD5 | -1 | -0.4 | -15 | 14.3 |
| GSR | 0 | -4.9 | -4.8 | -5 |
| LOC441175 | 0 | 3.3 | 3.6 | 2.9 |
| MRPL17 | 0 | 12.5 | 13.9 | 11.2 |
| LOC389295 | 0 | -8.1 | -14.1 | -2 |
| FOLH1 | 1 | 24.8 | 27.8 | 21.8 |
